Measured values as given in PMC10213043, “Different viral effectors suppress hormone-mediated antiviral immunity of rice coordinated by OsNPR1” (Nature Communications, 2023).
Results are given in words; binding and its absence hold for the method and conditions named. Binding seen in cells or lysates may run through a third protein. Some results given as binding are weak or reduced against the parent protein; the word gives no strength. Tags and fused reporters may be left off the sequences shown.

Chains of the proteins cited; added tags and fusions are not shown.
UniProt Q336P5: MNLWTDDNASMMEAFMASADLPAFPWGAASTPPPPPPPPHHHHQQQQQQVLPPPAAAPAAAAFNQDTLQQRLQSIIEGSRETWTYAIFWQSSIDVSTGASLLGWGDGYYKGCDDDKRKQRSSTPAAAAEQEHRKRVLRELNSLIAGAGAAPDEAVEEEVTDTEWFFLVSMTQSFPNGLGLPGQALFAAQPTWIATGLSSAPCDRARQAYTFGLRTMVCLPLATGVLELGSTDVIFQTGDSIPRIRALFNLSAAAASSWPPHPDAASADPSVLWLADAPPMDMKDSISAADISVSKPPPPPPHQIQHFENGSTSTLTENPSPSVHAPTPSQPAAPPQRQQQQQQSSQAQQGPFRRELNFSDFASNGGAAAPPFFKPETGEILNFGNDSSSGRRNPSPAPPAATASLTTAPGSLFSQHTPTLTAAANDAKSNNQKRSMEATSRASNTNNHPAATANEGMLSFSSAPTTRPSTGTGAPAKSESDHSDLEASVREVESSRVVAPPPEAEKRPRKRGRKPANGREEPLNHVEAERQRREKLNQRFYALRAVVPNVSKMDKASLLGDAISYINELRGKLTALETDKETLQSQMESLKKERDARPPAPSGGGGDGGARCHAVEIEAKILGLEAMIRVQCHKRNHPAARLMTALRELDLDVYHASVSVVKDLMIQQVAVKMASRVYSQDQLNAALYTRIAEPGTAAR

How the values were obtained:
[1] = biological target: T1, OsNPR1-GFP (rice) (UniProt Q9FDY4); assay: co-IP; protein competition Co-IP: two tagged proteins co-expressed in N. benthamiana leaves with or without a third protein (OsCTD-FLAG, P2-FLAG with 100 µM MG132, or OsNPR1)
T1 sequence: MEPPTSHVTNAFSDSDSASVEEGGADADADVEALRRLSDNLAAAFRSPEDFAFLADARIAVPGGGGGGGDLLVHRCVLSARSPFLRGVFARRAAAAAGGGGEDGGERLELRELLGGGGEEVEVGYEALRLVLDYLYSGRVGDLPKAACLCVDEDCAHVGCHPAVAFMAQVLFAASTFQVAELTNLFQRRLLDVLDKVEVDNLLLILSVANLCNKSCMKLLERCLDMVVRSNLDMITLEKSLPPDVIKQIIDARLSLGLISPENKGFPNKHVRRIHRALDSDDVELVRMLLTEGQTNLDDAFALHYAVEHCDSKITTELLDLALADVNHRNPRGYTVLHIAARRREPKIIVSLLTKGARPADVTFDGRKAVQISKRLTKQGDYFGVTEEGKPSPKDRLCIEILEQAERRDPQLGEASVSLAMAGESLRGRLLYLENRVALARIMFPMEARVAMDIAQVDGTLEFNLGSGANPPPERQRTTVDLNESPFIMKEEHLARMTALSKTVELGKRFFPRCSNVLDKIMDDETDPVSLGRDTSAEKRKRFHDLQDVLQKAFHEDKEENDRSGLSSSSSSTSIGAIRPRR

[2] = biological target: T1, OsNPR1-GFP (rice); assay: co-IP; transient co-expression in N. benthamiana leaves (WT or NahG transgenic), no SA added; IP lysis buffer with 10 mM DTT; anti-FLAG, GFP-trap or anti-c-Myc beads, about 2 h at 4 °C
[3] = biological target: T2, nYFP-OsNPR1 (rice) (UniProt Q9FDY4); assay: split reporter; BiFC in N. benthamiana leaves with or without a third protein (P2-FLAG, with or without MG132; OsNPR1-MYC)
T2 sequence: T1 sequence

[4] = biological target: T2, nYFP-OsNPR1 (rice); assay: split reporter; BiFC: nYFP and cYFP fusions co-expressed in N. benthamiana leaves (WT or NahG transgenic), confocal microscopy at 48 h

Row | Substance | binding [1] | binding [2] | binding [3] | binding [4]
1 | OsMYC2-MYC (from UniProt Q336P5 1-699) | binds | binds |  | 
2 | OsMYC2-cYFP (from UniProt Q336P5 1-699) |  |  | binds | binds
